Structures can show the parent of a compound that is named as a salt. The list shows a part of the results. Single values are uncertain here, since repeats match poorly.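 A first-round screen of about ten thousand compounds sought those raising reporter output, using human embryonic kidney cells briefly transfected with a plasmid carrying a Renilla luciferase gene driven by the HSV-TK promoter.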

The assay deals with HEK 293FT. Nature of the assay: log relative Renilla luciferase luminescence (reporter expression vs reference, reference not stated) (log (base not stated)); higher = higher recombinant reporter expression. To be noted: 10 µM; time after transfection 48 h.
With `O=C(c1cc2ccccc2o1)N1CCN(Cc2ccccc2)CC1` [Befuraline], the log is -0.627. On to `CC(C)c1c(C(=O)Nc2ccccc2)c(-c2ccccc2)c(-c2ccc(F)cc2)n1CC[C@@H](O)C[C@@H](O)CC(=O)O` [Atorvastatin Calcium], for which the log is -0.328. To `O=C1c2c(O)cc(O)cc2O[C@H](c2cc(O)c(O)c(O)c2)[C@H]1O` belongs 0.0932. In the case of `O=C1C=Cc2cc(Br)ccc2C1=O` [Bonaphton], the log was -0.0418. For the molecule `NCc1ccc(S(N)(=O)=O)cc1` [Mafenide], the log is -0.258. The value for `CN1[C@@H]2CC[C@H]1C[C@@H](OC(c1ccccc1)c1ccccc1)C2` [Benztropine hydrobromide] was -0.389; that for `C#Cc1cccc(Nc2ncnc3cc(OCCOC)c(OCCOC)cc23)c1` [Erlotinib Hydrochloride] was -0.0491. The value for `COc1c2[nH]c3occc3c(OC)c-2ccc1=O` [Haplopine] was 0.0805. Consider `CC(C)(C)C(=O)OCC(=O)[C@@]1(O)CC[C@H]2[C@@H]3CCC4=CC(=O)C=C[C@]4(C)[C@H]3[C@@H](O)C[C@@]21C` [Prednisolone trimethylacetate], for which the log turned out to be 0.0529.

As for `CCCCC(=O)N(Cc1ccc(-c2ccccc2-c2nnn[nH]2)cc1)[C@H](C(=O)O)C(C)C` [Valsartan], the log came to 0.102.

For `Cc1cc(O)c2c(c1)C(=O)c1cc(O)cc(O)c1C2=O` [Emodin], the log came to 0.0529. To `O=c1oc2cc(O)ccc2s1` [Tioxolone] belongs 0.228. The value for `C=C1C(=O)O[C@H]2CC(=C)[C@@H](O)CC/C(C)=C/[C@@H](O)[C@H]12` [Tanachin] was -0.0641. To `COc1ccc(/C=N/NC(=O)c2ccncc2)c(C(=O)O)c1OC` [Opiniazide] belongs 0.197; to `CCOC(=O)c1c(N)sc2c1CCN(Cc1ccccc1)C2` [Tinoridine], -0.758; to `O[C@@H]1CO[C@H]2[C@@H]1OC[C@@H]2O` [Isosorbide], 0.141.

`CC(C)Cn1cnc2c1c(=O)n(C)c(=O)n2C` [Isbufylline]: the log was found to be 0.0125. The value for `NCCCC[C@H](N[C@@H](CCc1ccccc1)C(=O)O)C(=O)N1CCC[C@H]1C(=O)O` [Lisinopril] was 0.127. To `CC(=O)OCCNC(=O)c1cccnc1` belongs -0.141; to `COc1cc2c(O)c3c(c(-c4ccc5c(c4)OCO5)c2cc1OC)C(=O)OC3` [Diphyllin], -0.255. To `CCN(CC)CCOCCOC(=O)C(CC)(CC)c1ccccc1` [Oxeladin Citrate] belongs -0.0207; to `C=C1C(=O)O[C@@H]2[C@H]1CC[C@H](C)[C@]1(O)CCC(=O)[C@@]21C` [Coronopilin], -0.0781; to `C/C(=C\C(=O)OCCCCCCCCC(=O)O)C[C@@H]1OC[C@H](C[C@@H]2O[C@H]2[C@@H](C)[C@H](C)O)[C@@H](O)[C@H]1O` [Mupirocin], -0.101. On to `CC(=O)SCCC(=O)N1[C@@H](C)CCC[C@H]1C(=O)O` [Metiapril], for which the log was found to be 0.0142. To `C=C(C)[C@@H]1CC[C@@H](C)C[C@H]1O` [Isopulegol] belongs 0.0262. The value for `C=C1C(=O)O[C@@H]2[C@H]3C(C)=CC[C@@]34O[C@@]4(C)CC[C@@H]12` [Arglabin] was -0.13; that for `COc1ccc(/C=C/C(=O)O)cc1O` [Isoferulic acid] was 0.0659; that for `Nc1ccc(S(=O)(=O)Nc2ccc(Cl)nn2)cc1` [Sulfachlorpyridazine] was 0.128. To `CCCCN(CCCC)CC(O)c1cc(Cl)cc2c1-c1ccc(Cl)cc1/C2=C/c1ccc(Cl)cc1` (centres undefined) [Lumefantrine] belongs 0.0735; to `Cc1c(C(=O)NN2CCCCC2)nn(-c2ccc(Cl)cc2Cl)c1-c1ccc(Cl)cc1` [Rimonabant Hydrochloride], -0.2.

Consider `OC[C@@H](O)[C@H](O)[C@H](O)[C@@H](O)CO` [Galactitol], for which the log was 0.233.

For `CC1(C)O[C@@H]2C[C@H]3[C@@H]4CCC5=CC(=O)C=C[C@]5(C)[C@@]4(F)[C@@H](O)C[C@]3(C)[C@]2(C(=O)CO)O1` [Triamcinolone acetonide], the log was found to be 0.0279. The value for `Cc1cc(=O)[nH]c(Nc2nc3ccccc3[nH]2)n1` was 0.0486; that for `COc1cc(C(=S)N2CCOCC2)cc(OC)c1OC` [Tritiozine] was 0.192; that for `COc1cc2c(cc1OC)C(=O)Cc1ccc3c(c1CN(C)CC2)OCO3` [Cryptopine] was -0.169. The value for `CCc1nnc(NS(=O)(=O)c2ccc(N)cc2)s1` [Sulfaethidole] was -0.0478; that for `COc1ccc(Cc2cnc(N)nc2N)cc1OC` [Diaveridine] was 0.162; that for `COc1ccc(-c2cc(=O)c3c(O)cc(O[C@@H]4O[C@H](CO[C@@H]5O[C@@H](C)[C@H](O)[C@@H](O)[C@H]5O)[C@@H](O)[C@H](O)[C@H]4O)cc3o2)cc1` [Acaciin] was 0.187. To `CCOC(=O)c1c(C)n(C)c2ccc(O)cc12` [Mecarbinate] belongs -0.809.

(Values after the supplement of paper PMC7024190.)
